{"source": "PubChem BioAssay AID1845225", "about": "(National Center for Advancing Translational Sciences (NCATS), 2023)", "assay": "Confirmatory redox qHTS assay for identification of artifact compounds.", "settings": "Amplex Red/HRP redox cycling with DTT, fluorescence", "excerpt": "PI: Alexander Tropsha Ph.D. UNC Eshelman School of Pharmacy University of North Carolina, Chapel Hill, North Carolina Hits from high-throughput screening (HTS) of chemical libraries are often false positives due to their interference with the assay detection technology. In response to this problem, we generated the largest publicly available library of chemical liabilities and developed a free webtool to predict HTS artifacts, both of which are described herein. More specifically, we generated, curated, and integrated HTS datasets for thiol reactivity, redox activity, and luciferase (firefly and nano) activity. Using these curated datasets, we developed and validated several Quantitative Structure-Interference Relationship (QSIR) models to predict nuisance behavior. […] These models were employed for virtual profiling of the National Center for Advancing Translational Science's (NCATS) in-house library, and 256 compounds for each assay were selected for the experimental validation of nuisance behavior. The BA for these external predictions ranged from 58 to 78% for compounds within the applicability domains of the models. […]\nPROTOCOL TABLE SEQUENCE No. (e.g., 1, 2, 3, etc.); […] […] 6; Detection; Fluorescence, ViewLux microplate reader, 525 nm excitation, 598 nm emission. […] Samples were read for fluorescence (Ex/Em = 525(20)/598(25) nm) on a ViewLux CCD imager (PerkinElmer). […]", "note": "The shares of active, inactive and inconclusive entries below differ from those in the screen. The call rests on the fitted dose curve; in most records, active means well fitted curve in the direction sought with a large enough effect; inconclusive means small, poorly fitted or top-dose-only effect, or effect the other way, or another doubt; inactive means no such curve, though single readings can be large or run the other way. Where the call is inconclusive, the potency comes from a doubtful curve fit."}
{"smiles": "COc1cc(OC)cc(C(=O)Nc2ccc(Cl)cc2C(=O)c2ccccc2Cl)c1", "values": [{"measurement": "Potency", "value": "inconclusive: 9.7 µM [activator, partial curve]"}]}
